From patent US20260041696A1, “IN-SITU PRODUCTION OF ANTI-INFLAMMATORY LIPIDS USING MILK FAT GLOBULES” (THE REGENTS OF THE UNIVERSITY OF CALIFORNIA, priority 2023, published 2026)

Assay: Incubation of milk cream (MFG) with DHA at room temperature or on ice; free and total oxylipins by UPLC-MS/MS
Parameters: species or system bovine
Settings: for detection of DHA-derived diols: across treatments regardless of DHA addition

Which “share esterified (bound)” value (milk cream incubated with DHA) does the source give for `CCC1OC1CC=CCC=CCC=CCC=CCC=CCCC(=O)O` (stereo not shown) [19(20)-EpDPE, 19(20)-epoxydocosapentaenoic acid] here?
The value was 60%.

What about the “share in free form” value (milk cream incubated with DHA) of the same compound?
Its value is 40%.

With `CC/C=C\CC(O)C(O)C/C=C\C/C=C\C/C=C\C/C=C\CCC(=O)O` (racemic) [16(17)-DiHDPA, (±)16,17-dihydroxy-4Z,7Z,10Z,13Z,19Z-docosapentaenoic acid] as the compound, how does the “detection of DHA-derived diols” value read?
Its value is “not detected in most replicates”.

For `CCC(O)C(O)C/C=C\C/C=C\C/C=C\C/C=C\C/C=C\CCC(=O)O` (racemic) [19(20)-DiHDPA, (±)19,20-dihydroxy-4Z,7Z,10Z,13Z,16Z-docosapentaenoic acid], which “detection of DHA-derived diols” value is on record?
Its value is “not detected in most replicates”.
